Reference: US20120208861A1
These are yes or no findings as the source states them, for the method shown. Binding seen in cells or lysates may run through a third protein. Some binding calls cover weakened binding; strength is not graded here. Sequences can lack the tags named with a protein.

Sequences of proteins named here, by UniProt entry; tags and fusion partners are left off. A change or cut given only in a name is not applied to a line headed by its entry.
UniProt O35906: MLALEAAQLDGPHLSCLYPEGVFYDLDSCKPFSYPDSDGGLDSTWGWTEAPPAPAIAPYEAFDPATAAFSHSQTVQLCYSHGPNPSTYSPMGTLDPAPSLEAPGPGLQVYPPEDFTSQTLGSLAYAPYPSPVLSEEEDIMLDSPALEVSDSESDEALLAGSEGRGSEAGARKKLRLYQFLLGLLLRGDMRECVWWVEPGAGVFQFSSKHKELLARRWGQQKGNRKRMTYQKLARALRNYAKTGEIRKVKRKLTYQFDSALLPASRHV

Columns and labels:
[1] = biological target: T1, FLAG-tagged mouse IRF-7 (mouse) (UniProt P70434); assay: co-immunoprecipitation from 293 cell extract, SDS-PAGE and immunoblotting
T1 sequence: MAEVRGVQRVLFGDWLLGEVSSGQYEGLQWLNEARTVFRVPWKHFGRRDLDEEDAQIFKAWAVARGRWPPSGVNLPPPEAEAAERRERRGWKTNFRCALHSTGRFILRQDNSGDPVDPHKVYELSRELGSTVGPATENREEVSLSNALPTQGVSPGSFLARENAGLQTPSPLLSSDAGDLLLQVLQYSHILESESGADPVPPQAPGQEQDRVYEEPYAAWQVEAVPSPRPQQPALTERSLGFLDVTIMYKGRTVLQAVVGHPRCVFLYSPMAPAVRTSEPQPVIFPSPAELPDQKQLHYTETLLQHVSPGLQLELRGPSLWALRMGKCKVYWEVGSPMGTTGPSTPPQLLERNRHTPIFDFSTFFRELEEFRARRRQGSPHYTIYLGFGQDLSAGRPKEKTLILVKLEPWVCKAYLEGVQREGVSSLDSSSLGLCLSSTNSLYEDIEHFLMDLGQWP

[2] = biological target: T1, FLAG-tagged mouse IRF-7 (mouse); assay: co-immunoprecipitation in both directions (anti-HA and anti-FLAG) from 293T cell extract, immunoblot

- binding [1]: binds
- binding [2]: binds
Substance: HA-tagged mouse Spi-B (from UniProt O35906 1-267)
